# PubChem BioAssay AID1224830 | NIAID, 2016
# Assay: 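Genes whose knock-down alters the TNF-alpha reporter response to LPS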 (primary screen)
# Cell system: human THP-1 monocytic leukaemia cells, TNF dual-luciferase reporter clone, PMA-differentiated to macrophage-like cells
# Reagents: siRNA pool against human genes, 50 nM
# Time to read-out: LPS for 4 h, given about 3 days after siRNA transfection
# Conditions: bacterial LPS (TLR4 ligand), 10 ng/ml
# Measurement: 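Ratio of firefly to renilla light, scaled to the plate median and expressed as a robust z-score per replicate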
# Scale: TNF reporter robust z-score: higher = stronger TNF reporter response to LPS
# Rule for the call: 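a well is active when its z-score exceeds 2.8 or falls below -1.5; control wells carry no call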
# The whole screen tested about 18,000 reagents; below is a part drawn at random. About 2,900 of all reagents (16%) were called active. 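Calls are made per well; low scores hint the gene aids the LPS response, high scores that it dampens it.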 Unmarked entries are inactive. Reagents against one gene are numbered here. Repeated entries: four replicate wells of each siRNA pool.
target,pool no.,TNF reporter robust z-score
TERF2 (GeneID 7014),1,2.63
TERF2 (GeneID 7014),1,1.08
TERF2 (GeneID 7014),1,1.83
TERF2 (GeneID 7014),1,2.22
CRTAM (GeneID 56253),1,0.35
CRTAM (GeneID 56253),1,1.14
CRTAM (GeneID 56253),1,0.06
CRTAM (GeneID 56253),1,2.05
USP24 (GeneID 23358),1,-0.66
USP24 (GeneID 23358),1,-0.23
USP24 (GeneID 23358),1,1.15
USP24 (GeneID 23358),1,0.88
DAAM1 (GeneID 23002),1,0.82
DAAM1 (GeneID 23002),1,2.55
DAAM1 (GeneID 23002),1,1.51
DAAM1 (GeneID 23002),1,2.69
APPL1 (GeneID 26060),1,4.6 (active)
APPL1 (GeneID 26060),1,6.45 (active)
APPL1 (GeneID 26060),1,6.25 (active)
APPL1 (GeneID 26060),1,4.13 (active)
PAN3 (GeneID 255967),1,-0.47
PAN3 (GeneID 255967),1,-0.42
PAN3 (GeneID 255967),1,-0.08
PAN3 (GeneID 255967),1,0.34
MS4A1 (GeneID 931),1,-0.28
MS4A1 (GeneID 931),1,-0.2
MS4A1 (GeneID 931),1,0.01
MS4A1 (GeneID 931),1,0.33
PRR36 (GeneID 80164),1,-0.55
PRR36 (GeneID 80164),1,-0.06
PRR36 (GeneID 80164),1,0.49
PRR36 (GeneID 80164),1,0.15
KIF16B (GeneID 55614),1,-1.16
KIF16B (GeneID 55614),1,-1.63 (active)
KIF16B (GeneID 55614),1,-0.94
KIF16B (GeneID 55614),1,-0.46
A4GALT (GeneID 53947),1,1.17
A4GALT (GeneID 53947),1,2.37
A4GALT (GeneID 53947),1,1.65
A4GALT (GeneID 53947),1,2.48
CYP2C8 (GeneID 1558),1,-0.12
CYP2C8 (GeneID 1558),1,-0.68
CYP2C8 (GeneID 1558),1,-0.63
CYP2C8 (GeneID 1558),1,0.52
MIER3 (GeneID 166968),1,-1.33
MIER3 (GeneID 166968),1,-1.3
MIER3 (GeneID 166968),1,-0.57
MIER3 (GeneID 166968),1,-0.78
RFPL2 (GeneID 10739),1,-1.64 (active)
RFPL2 (GeneID 10739),1,-0.92
RFPL2 (GeneID 10739),1,-0.78
RFPL2 (GeneID 10739),1,-0.44
AFAP1 (GeneID 60312),1,0.57
AFAP1 (GeneID 60312),1,0.84
AFAP1 (GeneID 60312),1,-0.42
AFAP1 (GeneID 60312),1,0.54
FRMPD4 (GeneID 9758),1,1.17
FRMPD4 (GeneID 9758),1,1.68
FRMPD4 (GeneID 9758),1,1.05
FRMPD4 (GeneID 9758),1,0.54
PIK3CD (GeneID 5293),1,1.51
PIK3CD (GeneID 5293),1,0.51
PIK3CD (GeneID 5293),1,1.74
PIK3CD (GeneID 5293),1,1.77
CDX2 (GeneID 1045),1,-0.71
CDX2 (GeneID 1045),1,0.15
CDX2 (GeneID 1045),1,-1.14
CDX2 (GeneID 1045),1,-1.16
ZNF585B (GeneID 92285),1,-0.34
ZNF585B (GeneID 92285),1,1.04
ZNF585B (GeneID 92285),1,1.01
ZNF585B (GeneID 92285),1,0.14

Already shown: 7 of the entries above.
target,pool no.,TNF reporter robust z-score
CRTAM (GeneID 56253),1,2.05
USP24 (GeneID 23358),1,-0.66
USP24 (GeneID 23358),1,-0.23
USP24 (GeneID 23358),1,1.15
USP24 (GeneID 23358),1,0.88
DAAM1 (GeneID 23002),1,0.82
DAAM1 (GeneID 23002),1,2.55

Additional records:
target,pool no.,TNF reporter robust z-score
DUS3L (GeneID 56931),1,4.55 (active)
DUS3L (GeneID 56931),1,2.95 (active)
DUS3L (GeneID 56931),1,3.78 (active)
DUS3L (GeneID 56931),1,1.06
MRC1 (GeneID 4360),1,-0.37
MRC1 (GeneID 4360),1,1.62
MRC1 (GeneID 4360),1,1.07
MRC1 (GeneID 4360),1,0.61
MRC1 (GeneID 4360),2,2.56
MRC1 (GeneID 4360),2,4.57 (active)
MRC1 (GeneID 4360),2,3.96 (active)
MRC1 (GeneID 4360),2,1.57
BBS7 (GeneID 55212),1,0.64
BBS7 (GeneID 55212),1,0.55
BBS7 (GeneID 55212),1,0.04
BBS7 (GeneID 55212),1,2.06
CTBP1 (GeneID 1487),1,-0.01
CTBP1 (GeneID 1487),1,-1.24
CTBP1 (GeneID 1487),1,0.89
CTBP1 (GeneID 1487),1,0.74
TLR6 (GeneID 10333),1,3.05 (active)
TLR6 (GeneID 10333),1,5.26 (active)
TLR6 (GeneID 10333),1,1.73
TLR6 (GeneID 10333),1,3.03 (active)
TXNDC5 (GeneID 81567),1,2.77
TXNDC5 (GeneID 81567),1,3.04 (active)
TXNDC5 (GeneID 81567),1,3.13 (active)
TXNDC5 (GeneID 81567),1,1.41
OR4K17 (GeneID 390436),1,-1.1
OR4K17 (GeneID 390436),1,-0.18
OR4K17 (GeneID 390436),1,-0.54
OR4K17 (GeneID 390436),1,-0.07
EVI2A (GeneID 2123),1,-0.16
EVI2A (GeneID 2123),1,-0.01
EVI2A (GeneID 2123),1,-1.39
EVI2A (GeneID 2123),1,-0.17
ABCB8 (GeneID 11194),1,0.36
ABCB8 (GeneID 11194),1,0.68
ABCB8 (GeneID 11194),1,-0.17
ABCB8 (GeneID 11194),1,-0.2
